Measured values: patent US20210115087A1, “CYCLIC PEPTIDE INHIBITORS OF HEDGEHOG PROTEINS” (University of Rochester, priority 2016, published 2021)
No constants are given. Whether binding was seen depends on the method and setting. Some results given as binding are weak or reduced against the parent protein; the word gives no strength.

Chains of the proteins cited; added tags and fusions are not shown. Residues count along the entry.
UniProt Q15465, residues 24-197: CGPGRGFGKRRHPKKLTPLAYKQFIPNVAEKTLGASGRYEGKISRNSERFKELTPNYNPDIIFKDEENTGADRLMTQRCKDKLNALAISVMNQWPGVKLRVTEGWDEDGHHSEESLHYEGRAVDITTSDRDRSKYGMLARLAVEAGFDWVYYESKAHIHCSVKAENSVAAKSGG
UniProt Q14623, residues 28-202: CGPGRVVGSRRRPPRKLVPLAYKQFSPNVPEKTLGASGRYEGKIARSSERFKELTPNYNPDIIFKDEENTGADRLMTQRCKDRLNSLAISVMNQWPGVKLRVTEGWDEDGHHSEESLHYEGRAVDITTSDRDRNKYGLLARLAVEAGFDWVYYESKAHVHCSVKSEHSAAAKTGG

Key:
[1] = target: GST-Dhh (recombinant GST-fused human Desert Hedgehog) (human) (UniProt O43323); experiment: direct binding ELISA: immobilized GST-Dhh, biotinylated peptide at a fixed concentration, HRP-conjugated streptavidin; response normalized to the highest of the three Hh proteins
[2] = target: GST-Shh (recombinant GST-fused human Sonic Hedgehog) (human) (UniProt Q15465); experiment: direct binding ELISA: immobilized GST-Shh, biotinylated peptide at a fixed concentration, HRP-conjugated streptavidin; response normalized to the highest of the three Hh proteins
[3] = target: GST-Ihh (recombinant GST-fused human Indian Hedgehog) (human) (UniProt Q14623); experiment: direct binding ELISA: immobilized GST-Ihh, biotinylated peptide at a fixed concentration, HRP-conjugated streptavidin; response normalized to the highest of the three Hh proteins
[4] = target: GST-Shh (recombinant GST-fused human Sonic Hedgehog) (human) (UniProt Q15465); experiment: direct binding to immobilized GST-Hh proteins at a fixed peptide concentration (FIG. 14; biotinylated peptides and HRP-streptavidin by the legend)
[5] = target: GST-Dhh (recombinant GST-fused human Desert Hedgehog) (human) (UniProt O43323); experiment: as above
[6] = target: GST-Ihh (recombinant GST-fused human Indian Hedgehog) (human) (UniProt Q14623); experiment: as above

Measured: binding

TLDDMEEMDGLSD (biotinylated (site and spacer not stated)) [Biot-HL2-pep]
binds: all assays above
